Assay results from publication PMC8351106.
These are yes or no findings as the source states them, for the method shown. Binding seen in cells or lysates may run through a third protein. Some results given as binding are weak or reduced against the parent protein; the word gives no strength. Blank lines part the entries; values can stand above or below the molecule they belong to.

Sequences of proteins named here, by UniProt entry; tags and fusion partners are left off.
UniProt P15976: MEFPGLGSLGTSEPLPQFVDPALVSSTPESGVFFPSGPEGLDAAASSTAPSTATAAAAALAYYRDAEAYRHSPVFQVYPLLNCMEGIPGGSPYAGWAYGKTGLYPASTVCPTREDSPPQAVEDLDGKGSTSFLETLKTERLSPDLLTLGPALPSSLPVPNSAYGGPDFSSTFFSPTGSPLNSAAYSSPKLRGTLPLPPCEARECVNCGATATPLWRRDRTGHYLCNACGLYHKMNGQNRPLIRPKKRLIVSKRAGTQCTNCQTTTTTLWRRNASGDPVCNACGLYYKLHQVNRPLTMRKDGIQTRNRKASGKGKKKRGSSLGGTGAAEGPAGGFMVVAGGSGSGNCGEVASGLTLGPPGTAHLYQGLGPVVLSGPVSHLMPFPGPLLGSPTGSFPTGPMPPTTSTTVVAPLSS
UniProt Q01196: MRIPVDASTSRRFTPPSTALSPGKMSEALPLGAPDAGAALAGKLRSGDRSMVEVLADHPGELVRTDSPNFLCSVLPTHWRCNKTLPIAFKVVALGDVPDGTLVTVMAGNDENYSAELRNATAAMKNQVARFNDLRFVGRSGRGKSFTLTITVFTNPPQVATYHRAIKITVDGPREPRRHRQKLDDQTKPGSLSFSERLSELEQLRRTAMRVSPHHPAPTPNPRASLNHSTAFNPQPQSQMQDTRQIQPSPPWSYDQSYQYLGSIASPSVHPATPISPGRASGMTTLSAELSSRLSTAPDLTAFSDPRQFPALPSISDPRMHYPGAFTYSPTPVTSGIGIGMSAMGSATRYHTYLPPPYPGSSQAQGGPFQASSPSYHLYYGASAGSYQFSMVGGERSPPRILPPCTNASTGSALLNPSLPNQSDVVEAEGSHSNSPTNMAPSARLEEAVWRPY

Biological target: GATA binding protein 1 (human (endogenous in KU-812)) (UniProt P15976)
Assay: co-IP; KU-812 cell lysate incubated with anti-GATA-1 antibody and protein A/G-conjugated beads at 4 °C overnight, washed three times with PBS; western blot with anti-FOG-1 and anti-RUNX1; cells treated with wogonin (0, 5, 10 and 20 μM) for 72 h

binding: binds
Molecule: Runt-related transcription factor 1 (from UniProt Q01196 1-453)

binding: binds
B1: friend of GATA-1 (protein, UniProt Q8IX07 1-1006)
chain: MSRRKQSNPRQIKRSLGDMEAREEVQLVGASHMEQKATAPEAPSPPSADVNSPPPLPPPTSPGGPKELEGQEPEPRPTEEEPGSPWSGPDELEPVVQDGQRRIRARLSLATGLSWGPFHGSVQTRASSPRQAEPSPALTLLLVDEACWLRTLPQALTEAEANTEIHRKDDALWCRVTKPVPAGGLLSVLLTAEPHSTPGHPVKKEPAEPTCPAPAHDLQLLPQQAGMASILATAVINKDVFPCKDCGIWYRSERNLQAHLLYYCASRQGTGSPAAAATDEKPKETYPNERVCPFPQCRKSCPSASSLEIHMRSHSGERPFVCLICLSAFTTKANCERHLKVHTDTLSGVCHSCGFISTTRDILYSHLVTNHMVCQPGSKGEIYSPGAGHPATKLPPDSLGSFQQQHTALQGPLASADLGLAPTPSPGLDRKALAEATNGEARAEPLAQNGGSSEPPAAPRSIKVEAVEEPEAAPILGPGEPGPQAPSRTPSPRSPAPARVKAELSSPTPGSSPVPGELGLAGALFLPQYVFGPDAAPPASEILAKMSELVHSRLQQGAGAGAGGAQTGLFPGAPKGATCFECEITFSNVNNYYVHKRLYCSGRRAPEDAPAARRPKAPPGPARAPPGQPAEPDAPRSSPGPGAREEGAGGAATPEDGAGGRGSEGSQSPGSSVDDAEDDPSRTLCEACNIRFSRHETYTVHKRYYCASRHDPPPRRPAAPPGPPGPAAPPAPSPAAPVRTRRRRKLYELHAAGAPPPPPPGHAPAPESPRPGSGSGSGPGLAPARSPGPAADGPIDLSKKPRRPLPGAPAPALADYHECTACRVSFHSLEAYLAHKKYSCPAAPPPGALGLPAAACPYCPPNGPVRGDLLEHFRLAHGLLLGAPLAGPGVEARTPADRGPSPAPAPAASPQPGSRGPRDGLGPEPQEPPPGPPPSPAAAPEAVPPPPAPPSYSDKGVQTPSKGTPAPLPNGNHRYCRLCNIKFSSLSTFIAHKKYYCSSHAAEHVK
